Entries after “also recorded” stand apart in the source; their conditions may differ.
Test system: adult S. japonicum
Test: Immunolocalisation (HRP labelling) in adult S. japonicum sections
Conditions: HRP labelling of cryostat sections, mouse anti-SjILP serum or mouse anti-human insulin mAb 1:100

## human insulin: human insulin (Sigma-Aldrich)
  localisation in adult S. japonicum: detected only on the surface of adult male and female S. japonicum; also recorded: detected on the tegument of adult worms with less HRP labelling compared to that observed in SjILP

Source: publication PMC5391603, “Identification and functional characterisation of a Schistosoma japonicum insulin-like peptide” (Parasites & Vectors, 2017)
